Laboratory results: PubChem BioAssay AID504786 (Drosophila RNAi Screening Center, 2011)
The deposit covers about 21,000 reagents; shown is a random part of those with a known target gene and a result. 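Primary screen; positive scores mean lost reporter signal, so the sign may be inverted from the usual convention.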 A plus sign joins genes that one reagent is predicted to hit.

Screen: 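Positive regulators of HIF-driven reporter output in Drosophila cells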 (primary screen)
Cell system: Drosophila S2 cells with a stable HIF luciferase reporter
Knock-down reagent: long dsRNA against Drosophila genes, about 0.2 µg dsRNA per well of a 384-well plate
Timing: three days of knock-down, then 20 h of DFO before reading
Treatment: desferrioxamine (DFO) at 100 µM, an iron chelator that mimics hypoxia, for 20 h
Detection: 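HIF reporter luminescence in cells given 100 µM DFO for 20 h, using the mouse ldh-a hypoxia-response element, scored as per-plate z-scores; higher means greater loss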
Reading the numbers: z-score: higher = stronger loss of HIF reporter signal

gene,dsRNA,"z-score, replicate 1","z-score, replicate 2","z-score, replicate 3","z-score, replicate 4"
CG7544,DRSC07023,-0.3,-0.3,,
LysE,DRSC08675,-0.4,-0.3,,
CG30002,DRSC05182,-0.2,-0.2,,
CG4610,DRSC04477,-0.4,-0.6,,
CG14377,DRSC14837,-0.3,-0.7,,
neb,DRSC03577,-0.1,0.4,,
chinmo,DRSC00292,-0.3,-0.3,,
chinmo,DRSC00485,1.3,0.8,,
chinmo,DRSC00509,5.1,3.6,,
Nhe1,DRSC00762,-0.2,-0.1,,
Acyp2,DRSC15336,0,-0.5,,
CG6700,DRSC02980,0.5,0.4,,
Takl2,DRSC15650,-0.3,-0.3,,
sbm,DRSC20185,-0.2,-0.3,,
kto,DRSC10983,0.2,0.7,,
CG10904,DRSC04084,-0.2,0,,
CG3061,DRSC15460,-0.3,-0.7,,
dnc,DRSC17758,1.9,0.2,,
dnc,DRSC17759,-0.1,-0.5,,
dnc,DRSC17911,-0.2,-0.4,,
dnc,DRSC18763,-0.4,-0.8,,
dnc,DRSC18764,-0.3,0.1,,
dre4,DRSC08714,0.7,3.7,,
Hsepi,DRSC04986,-0.3,-0.3,,
CG34193,DRSC05665,0,-0.3,,
Cul6,DRSC09830,-0.1,0,,
Slh,DRSC00789,-0.5,0.1,,
Ldaf1,DRSC17963,-0.2,-0.4,,
Prosalpha4T1,DRSC16800,0.4,-0.3,,
CG4650,DRSC02767,-0.3,-0.2,,
CG18335,DRSC06723,-0.2,-0.2,,
CG31815,DRSC01548,-0.5,0.4,,
CG14304,DRSC14783,-1,-0.6,,
CG4627,DRSC06873,-0.5,-0.6,,
ey,DRSC17173,-0.4,-0.4,,

5 successive entries from above:
gene,dsRNA,"z-score, replicate 1","z-score, replicate 2","z-score, replicate 3","z-score, replicate 4"
chinmo,DRSC00292,-0.3,-0.3,,
chinmo,DRSC00485,1.3,0.8,,
chinmo,DRSC00509,5.1,3.6,,
Nhe1,DRSC00762,-0.2,-0.1,,
Acyp2,DRSC15336,0,-0.5,,

More entries follow.
gene,dsRNA,"z-score, replicate 1","z-score, replicate 2","z-score, replicate 3","z-score, replicate 4"
Osbp,DRSC16779,-0.3,-0.8,,
hd,DRSC12316,-0.2,-0.1,,
CG15550,DRSC15088,0,-0.2,,
miple2,DRSC08723,-0.2,-0.1,,
CG7423,DRSC20044,-0.2,-0.6,,
Pdcd4,DRSC19360,-0.6,-0.7,,
exp,DRSC06313,1.2,1.4,,
CG9928,DRSC03274,-0.3,-0.1,,
eg,DRSC11885,-0.2,-0.6,,
CG18371,DRSC06733,-0.3,-0.3,,
Pdh,DRSC11249,-0.2,-0.2,,
CG11151,DRSC19387,-0.2,0.1,,
vir-1,DRSC02501,-0.2,0.1,,
vir-1,DRSC02863,-0.2,-0.9,,
lambdaTry,DRSC06137,-0.2,-0.4,,
Hacd2,DRSC03181,-0.3,0.1,,
CG5577,DRSC10519,-0.2,-0.5,,
CG13526,DRSC04168,-0.4,-0.6,,
CG4074 + CG4186,DRSC11753,-0.3,-0.4,,
PGRP-SB1,DRSC11090,-0.3,0.2,,
CG9897 + asRNA:CR42742,DRSC04595,-0.2,-0.3,,
sit,DRSC15760,-0.1,0.3,,
smid,DRSC11398,-0.4,-0.5,,
alphaKap4,DRSC09823,-0.4,-0.4,,
Bbd,DRSC06709,-0.1,-0.2,,
CG6569,DRSC16067,0.3,0.2,,
Zip42C.1,DRSC05003,-0.1,-0.3,,
Septin4,DRSC20205,-0.2,0.3,,
svr,DRSC17293,0,-0.2,,
svr,DRSC18841,-0.1,0.4,,
fred,DRSC00349,-0.4,-0.7,,
fred,DRSC00599,-0.4,0,-0.5,-0.3
fred,DRSC00601,-0.1,-0.4,,
fred,DRSC00602,-0.4,0,,
RhoBTB,DRSC11877,-0.3,-0.3,,
Tom70,DRSC02990,0.8,0.7,-0.1,0
CG31265,DRSC15745,-0.4,0,,
CG18449,DRSC06754,-0.2,-0.4,,
Ripalpha,DRSC02657,-0.4,-0.1,,
CG18368,DRSC06731,-0.4,-0.5,,
Ctl2,DRSC14423,-0.3,-0.3,,
Myc,DRSC18762,4.7,2.8,,
CG6125,DRSC15970,-0.2,-0.6,,
CG17163,DRSC20901,0.3,0.2,,
CG14852,DRSC14976,0.3,-0.6,,
CR18275 + CR18166 + CG32817,DRSC17249,0,-0.2,,
CG4502,DRSC02755,-0.4,-0.5,,
CG16956,DRSC02544,0.5,-0.1,,
CG13933,DRSC08402,-0.3,-0.6,,
CG11050,DRSC02125,0.4,0.2,,
inaD,DRSC04694,-0.3,-0.2,,
msi,DRSC17003,1.9,1.1,,
DIP-theta,DRSC00885,-0.3,0.2,-0.1,-0.1
DIP-theta,DRSC02340,-0.4,-0.8,,
DIP-theta,DRSC02341,1.1,0.5,,
CG3534,DRSC15494,-0.1,-0.4,,
PIP4K,DRSC17213,-0.4,-0.6,,
CG1647,DRSC15134,-0.3,-0.1,,
Irp-1A,DRSC16719,-0.3,-0.3,-0.6,-0.3
Bgb,DRSC08148,-0.2,0.1,,
bsf,DRSC02035,0.1,0.5,,
FoxL1,DRSC08717,0,-0.1,,
ATPsynG,DRSC02928,0.5,0.1,0.1,1.2
CG12902,DRSC06217,-0.3,-0.6,,
CG8861,DRSC12731,0,0.2,,
CG8861,DRSC16449,-0.5,-0.2,,
CG5196,DRSC15735,-0.3,0.1,,
CG5966,DRSC18394,-0.3,0.6,,
CG11672,DRSC14344,-0.1,0,,
wbl,DRSC07718,-0.2,0.2,,
Cpr47Ea,DRSC07333,-0.4,-0.6,,
